In PubChem BioAssay AID342 (DTP/NCI, 2004) one finds T/C data, which are given here for one compound.

The list shows only some results of the screen, not a fair sample: its compounds were picked by chemical class. Not every dose and run of a compound is shown. T/C: endpoint of the treated group in % of that of the vehicle group. Some entries show no survivor count and are marked so; the dose need not have been tolerated. Schedules are NCI's codes, read here as Q, the interval in days (D) or hours (H), X, the number of doses. Some schedules carry Z or #; the key to these is not given.

In the assay the test system is Swiss mice, Sarcoma 180 sc, mean tumor weight T/C. The assay is described as follows: NCI In Vivo Anticancer Drug Screen. Data for tumor model Sarcoma 180 (subcutaneous) in Swiss mice. Particulars: T/C endpoint: mean tumor weight, schedule: Q#A X014 (ip), vehicle: carboxymethylcellulose (CMC), evaluation day not shown, higher T/C = larger tumour. The procedure:
The antitumor activity of compounds was measured in mice bearing transplantable tumors. Survival or tumor size were measured and the results are expressed as the measurement made in the treated group (T) divided by the measurement made in the vehicle treated control group (C). The tumor model used in this assay is Sarcoma 180 (subcutaneous) in Swiss mice

On to `CN(CCCl)CCCl`, for which the T/C was 107 % of control [survivor count not shown] (dose: 0.05 mg/kg/injection), 100 % of control [survivor count not shown] (dose: 0.1 mg/kg/injection), 62 % of control [survivor count not shown] (dose: 0.2 mg/kg/injection) and 55 % of control [survivor count not shown] (dose: 0.4 mg/kg/injection).
